For at least one compound, name, drawing or mass did not settle the structure.
Test system: sea lice
Assay: Injection of 9 active substances, protective effect against sea lice (Example 8)
Assay type: in vivo, salmon smolt
Experimental: The treatment dosage was 9 mg hexaflumuron per kg fish per day for 10 days. This is indicated by "Groups/Timepoints" in the figure; • Figure 2 relates to the trial in Example 2 that was carried out on Atlantic salmon (Salmo salar). […] The treatment dosage varied between 3 - 9 mg hexaflumuron and 9- 12 mg fluazuron per kg fish per day for 7 days. This is indicated by "Groups/Timepoints" in the diagram. […] The treated groups are compared to an untreated control group. The treatment dosage was 4 mg hexaflumuron per kg fish per day for 5 days. This is indicated by "Groups/Timepoints" in the figure. Cage 2 = controls, Cage 4-6 = treated groups, 16.6.97 = time point for sea transfer and 5.8.97= controls treated by bathing with deltamethrin; • Figure 4 relates to the trial described in Example 5, which was carried out on sea trout (Salmo trutta). […] The treated groups are compared with an untreated control group. The dosage for oral treatment was 4 mg hexaflumuron per kilo fish per day for 5 days, and 5 ppm hexaflumuron as a 30 minute bath treatment. This is indicated by "Groups/Timepoints" in the figure. Cage 1.4 = Controls, cage 1.3 = Oral treatment, cage 1.2 = Bath treatment. […] The treated groups are compared with an untreated control group, and one group that has been treated orally with teflubenzuron (10 mg/kg of teflubenzuron per kg fish per day for 7 days). […]

**Q.** `CO/N=C1\C[C@]2(C[C@@H]3C[C@@H](C/C=C(\C)C[C@@H](C)/C=C/C=C4\CO[C@@H]5[C@H](O)C(C)=C[C@@H](C(=O)O3)[C@]45O)O2)O[C@H](/C(C)=C/C(C)C)[C@H]1C` [moxidectin, reference compound] was tested. Which “protection against sea lice” value (T2, 40 days after injection, hexaflumuron, lufenuron about 50 mg/kg, moxidectin 0.2 mg/kg) did it give?
**A.** showed protection

**Q.** And the protection following injection (other active substances, summary of trial)?
**A.** good protection for an extended period of time
